# Results taken from PubChem BioAssay AID292 (DTP/NCI, 2004).
# The list does not hold the whole screen: it is rich in T/C values a quarter to a half above the control, in often repeated tests (any T/C) and in doses without a T/C. Other doses and runs of a compound stand elsewhere. T/C is the treated group as % of the vehicle group. Some entries give survivors of the animals treated and no T/C: the source files T/C as zero there, which appears to mark a toxic dose or a test without result, not a measured value. Some doses without a T/C left all or most animals alive at the check, yet need not have been tolerated: the source hardly ever lists a survival T/C far under the control, and the zero likely stands for such cases as well. Survivors were counted at the toxicity check, usually on the fifth day, unless a day is given; later deaths do not show. Schedule codes are those of the source, taken here to give the interval after Q, in days (D) or hours (H), and the number of doses after X. Some molecules as drawn cover several salts, stereoisomers or complexes of the source; a dose is that of the sample tested. Some doses were run more than once; the results are listed from low to high. For survival time, this PubChem deposit counts one and a half times the control or more as active, and values a quarter to a half above the control carry no call in these data; other NCI protocols may use other cut-offs. Some T/C values are followed by the survivors on the day toxicity was checked, most often the fifth; where none is given, no animal had died by that day.
# Tested on: B6C3F1 mice, ip Sarcoma M5076, median survival T/C
# Experiment: NCI In Vivo Anticancer Drug Screen. Data for tumor model Sarcoma M5076 (intraperitoneal) in B6C3F1 mice
# Conditions: T/C endpoint: median survival time, higher T/C = longer survival
# Summary of the method: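 Transplantable tumour in mice; compound-treated vs vehicle-treated groups. Read-out: survival. Value = treated/control ratio.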
# [1] = dose: 150.0 mg/kg/injection, schedule: Q04DX004 (ip), vehicle: saline with Tween-80
# [2] = dose: 300.0 mg/kg/injection, schedule: Q04DX004 (ip), vehicle: saline with Tween-80
# [3] = dose: 800.0 mg/kg/injection, schedule: Q04DX004 (ip), vehicle: Klucel (hydroxypropylcellulose) (HPC)
# [4] = dose: 400.0 mg/kg/injection, schedule: Q04DX004 (ip), vehicle: saline
# [5] = dose: 800.0 mg/kg/injection, schedule: Q04DX004 (ip), vehicle: saline
# [6] = dose: 100.0 mg/kg/injection, schedule: Q04DX004 (ip), vehicle: saline with Tween-80
# [7] = dose: 400.0 mg/kg/injection, schedule: Q04DX004 (ip), vehicle: saline with Tween-80
# [8] = dose: 800.0 mg/kg/injection, schedule: Q04DX004 (ip), vehicle: saline with Tween-80
# [9] = dose: 600.0 mg/kg/injection, schedule: Q04DX004 (ip), vehicle: saline with Tween-80
# [10] = dose: 100.0 mg/kg/injection, schedule: Q04DX004 (ip), vehicle: suspension in saline
smiles,measurement,setting,value
CC[C@@H](C)[C@@H]1NC(=O)C(NC(=O)C(CC(C)C)N(C)C(=O)C2CCCN2C(=O)C(C)O)C(C)OC(=O)C(Cc2ccc(OC)cc2)N(C)C(=O)C2CCCN2C(=O)C(CC(C)C)NC(=O)C(C)C(=O)C(C(C)C)OC(=O)C[C@H]1O (some centres undefined),T/C,"dose: 0.13 mg/kg/injection, schedule: Q04DX004 (ip), vehicle: distilled water + alcohol",142 % of control [9 of 10 alive on day 14]
same,T/C,"dose: 0.22 mg/kg/injection, schedule: Q04DX004 (ip), vehicle: distilled water + alcohol",136 and 144 % of control
same,T/C,"dose: 0.36 mg/kg/injection, schedule: Q04DX004 (ip), vehicle: distilled water + alcohol",145 % of control
same,T/C,"dose: 0.6 mg/kg/injection, schedule: Q04DX004 (ip), vehicle: distilled water + alcohol",136 % of control
same,survivor count,"dose: 1.0 mg/kg/injection, schedule: Q04DX004 (ip), vehicle: distilled water + alcohol",0 of 10 on day 14 and 1 of 10 on day 14
same,T/C,"dose: 180.0 micrograms/kg/injection, schedule: Q04DX004 (ip), vehicle: distilled water + alcohol",140 % of control
same,T/C,"dose: 360.0 micrograms/kg/injection, schedule: Q04DX004 (ip), vehicle: distilled water + alcohol",149 % of control
same,T/C,"dose: 720.0 micrograms/kg/injection, schedule: Q04DX004 (ip), vehicle: distilled water + alcohol",140 % of control
CCCCCNc1ncnc2c(C)[nH]nc12,survivor count,"dose: 400.0 mg/kg/injection, schedule: Q04DX004 (ip), vehicle: Klucel (hydroxypropylcellulose) (HPC)",2 of 10 on day 14
CC(C)(C[NH-])C[NH-].[Cl][Pt+2][Cl],T/C,"dose: 0.25 mg/kg/injection, schedule: Q04DX004 (ip), vehicle: water",136 % of control
same,T/C,"dose: 0.5 mg/kg/injection, schedule: Q04DX004 (ip), vehicle: water",131 and 132 % of control
Clc1ccc(OCC(Cn2ccnc2)c2ccc(Cl)cc2)cc1 (centres undefined),survivor count,[1],8 of 10 on day 14
same,survivor count,[2],1 of 10 on day 14
COc1cccc(C2NC(=S)NC(=O)C2C#N)c1 (centres undefined),survivor count,[3],0 of 10 on day 14
O=C1[C@@H]2C3C=CC([C@H]4C(=O)N(CO)C(=O)[C@@H]34)[C@@H]2C(=O)N1CO,survivor count,[3],0 of 10 on day 14
NCCCNCCCCNC(=O)C(O)NC(=O)CC(O)CCCCN=C(N)N (centres undefined),survivor count,"dose: 200.0 mg/kg/injection, schedule: Q04DX004 (ip), vehicle: saline",1 of 10 on day 14
same,survivor count,[4],0 of 10 on day 14
same,survivor count,[5],0 of 10 on day 14
Oc1ccc(N=C2N=c3c(c4ccccc4c4ccccc34)=N2)c2ccccc12,survivor count,"dose: 50.0 mg/kg/injection, schedule: Q04DX004 (ip), vehicle: saline with Tween-80",10 of 10 on day 14
same,survivor count,[6],10 of 10 on day 14
same,survivor count,"dose: 200.0 mg/kg/injection, schedule: Q04DX004 (ip), vehicle: saline with Tween-80",10 of 10 on day 14
same,survivor count,[7],10 of 10 on day 14
same,survivor count,[8],8 of 10 on day 14
N#Cc1c(-c2ccc(F)cc2)c(-c2ccc(F)cc2)nn(CCO)c1=O,T/C,"dose: 200.0 mg/kg/injection, schedule: Q04DX004 (ip), vehicle: distilled water + Tween-80, evaluated on day 48",125 % of control
same,T/C,"dose: 200.0 mg/kg/injection, schedule: Q04DX004 (ip), vehicle: distilled water + Tween-80, evaluated on day 60",147 % of control
N#CC(=C1C=CC(=NO)C=C1)c1ccc(Cl)cc1,survivor count,"dose: 37.5 mg/kg/injection, schedule: Q04DX004 (ip), vehicle: saline with Tween-80",10 of 10 on day 14
same,survivor count,"dose: 75.0 mg/kg/injection, schedule: Q04DX004 (ip), vehicle: saline with Tween-80",10 of 10 on day 14
same,survivor count,[1],10 of 10 on day 14
same,survivor count,[2],8 of 10 on day 14
O=c1c(O)c(-c2cc(O)c(O)c(O)c2)oc2cc(O)cc(O)c12,survivor count,"dose: 1200.0 mg/kg/injection, schedule: Q04DX004 (ip), vehicle: saline with Tween-80",5 of 10 on day 14
COc1ccc2c(n1)Sc1nc3ccccc3nc1N2,survivor count,[2],10 of 10 on day 14
same,survivor count,[9],10 of 10 on day 14
CN(C)[C@@H]1C(=O)C(C(N)=O)=C(O)[C@@]2(O)C(=O)C3=C(O)c4c(O)ccc(Cl)c4[C@@](C)(O)[C@H]3C[C@@H]12,survivor count,"dose: 200.0 mg/kg/injection, schedule: Q04DX004 (ip), vehicle: suspension in saline",7 of 10 on day 14
same,survivor count,"dose: 400.0 mg/kg/injection, schedule: Q04DX004 (ip), vehicle: suspension in saline",2 of 10 on day 14
O=c1c(O)c(O)c1=O.[NH2-].[NH2-].[NH2-].[NH2-].[NH2-].[Ru+5],survivor count,"dose: 50.0 mg/kg/injection, schedule: Q04DX004 (ip), vehicle: suspension in saline",8 of 10 on day 14
same,survivor count,[10],0 of 10 on day 14
CCc1n[nH]c(CC)c1CCCCCCOc1ccc(OC)cc1Cl,survivor count,[1],10 of 10 on day 14
same,survivor count,[2],5 of 10 on day 14
same,survivor count,[7],7 of 10 on day 14
same,survivor count,[9],0 of 10 on day 14
c1nnc(NCNc2nncs2)s1,T/C,"dose: 86.0 mg/kg/injection, schedule: Q04DX003 (ip), vehicle: suspension in saline",131 % of control [9 of 10 alive on day 14]
same,T/C,"dose: 86.0 mg/kg/injection, schedule: Q04DX004 (ip), vehicle: suspension in saline",148 % of control
same,T/C,[10],127 % of control
same,T/C,"dose: 144.0 mg/kg/injection, schedule: Q04DX003 (ip), vehicle: suspension in saline",143 % of control [8 of 10 alive on day 14]
same,T/C,"dose: 240.0 mg/kg/injection, schedule: Q04DX003 (ip), vehicle: suspension in saline",143 % of control [9 of 10 alive on day 14]
same,T/C,"dose: 400.0 mg/kg/injection, schedule: Q04DX003 (ip), vehicle: suspension in saline",139 % of control [8 of 10 alive on day 14]
same,survivor count,"dose: 666.0 mg/kg/injection, schedule: Q04DX003 (ip), vehicle: suspension in saline",6 of 10 on day 14
same,survivor count,"dose: 666.0 mg/kg/injection, schedule: Q04DX004 (ip), vehicle: suspension in saline",6 of 10 on day 14
NC(=O)c1[nH]cnc1O,survivor count,[7],6 of 10 on day 14
same,survivor count,[8],3 of 10 on day 14 and 4 of 10 on day 14
c1cn[nH]c1,T/C,[4],126 % of control [8 of 10 alive on day 14]
same,survivor count,[4],0 of 10 on day 14
same,survivor count,[5],0 of 10 on day 14
N=C(N)c1ccc(Nc2ccc(-c3cc4ccc(C(=N)N)cc4[nH]3)cc2)cc1,T/C,"dose: 7.5 mg/kg/injection, schedule: Q04DX004 (ip), vehicle: Klucel (hydroxypropylcellulose) (HPC)",125 % of control
same,survivor count,"dose: 15.0 mg/kg/injection, schedule: Q04DX004 (ip), vehicle: Klucel (hydroxypropylcellulose) (HPC)",8 of 10 on day 14
same,survivor count,"dose: 30.0 mg/kg/injection, schedule: Q04DX004 (ip), vehicle: Klucel (hydroxypropylcellulose) (HPC)",1 of 10 on day 14
same,survivor count,"dose: 60.0 mg/kg/injection, schedule: Q04DX004 (ip), vehicle: Klucel (hydroxypropylcellulose) (HPC)",0 of 10 on day 14
Cn1c2c(c3nc(N)nc(N)c3c1=O)CCc1ccccc1-2,survivor count,"dose: 200.0 mg/kg/injection, schedule: Q04DX004 (ip), vehicle: distilled water + alcohol",2 of 10 on day 14
same,survivor count,"dose: 400.0 mg/kg/injection, schedule: Q04DX004 (ip), vehicle: distilled water + alcohol",0 of 10 on day 14
Cc1c2ccccc2cc2cccc[n+]12,survivor count,"dose: 80.0 mg/kg/injection, schedule: Q04DX004 (ip), vehicle: saline",0 of 10 on day 9
same,survivor count,"dose: 160.0 mg/kg/injection, schedule: Q04DX004 (ip), vehicle: saline",0 of 10 on day 9
C[CH2][Sn]([Cl])([CH2]C)[c]1cc[c]([Sn]([Cl])([CH2]C)[CH2]C)cc1,survivor count,"dose: 1.0 mg/kg/injection, schedule: Q04DX004 (ip), vehicle: Klucel (hydroxypropylcellulose) (HPC)",0 of 10 on day 14
O=C(c1ncccc1O)N1CCCCC1,survivor count,"dose: 162.5 mg/kg/injection, schedule: Q04DX004 (ip), vehicle: distilled water + Tween-80",10 of 10 on day 14
COc1cccc2c1C(=O)C1=C(C2=O)c2c(O)cc(CO)cc2C(O)C1O (centres undefined),survivor count,[6],0 of 10 on day 14
